Results on one molecule are retold here after patent US20250213705A1, “PSMA TARGETING LIGANDS AND METHODS OF USE” (Bright Peak Therapeutics AG, priority 2023, published 2025).

By UniProt entry, the sequences of proteins in these tests, tags left out.
UniProt Q04609, whole entry: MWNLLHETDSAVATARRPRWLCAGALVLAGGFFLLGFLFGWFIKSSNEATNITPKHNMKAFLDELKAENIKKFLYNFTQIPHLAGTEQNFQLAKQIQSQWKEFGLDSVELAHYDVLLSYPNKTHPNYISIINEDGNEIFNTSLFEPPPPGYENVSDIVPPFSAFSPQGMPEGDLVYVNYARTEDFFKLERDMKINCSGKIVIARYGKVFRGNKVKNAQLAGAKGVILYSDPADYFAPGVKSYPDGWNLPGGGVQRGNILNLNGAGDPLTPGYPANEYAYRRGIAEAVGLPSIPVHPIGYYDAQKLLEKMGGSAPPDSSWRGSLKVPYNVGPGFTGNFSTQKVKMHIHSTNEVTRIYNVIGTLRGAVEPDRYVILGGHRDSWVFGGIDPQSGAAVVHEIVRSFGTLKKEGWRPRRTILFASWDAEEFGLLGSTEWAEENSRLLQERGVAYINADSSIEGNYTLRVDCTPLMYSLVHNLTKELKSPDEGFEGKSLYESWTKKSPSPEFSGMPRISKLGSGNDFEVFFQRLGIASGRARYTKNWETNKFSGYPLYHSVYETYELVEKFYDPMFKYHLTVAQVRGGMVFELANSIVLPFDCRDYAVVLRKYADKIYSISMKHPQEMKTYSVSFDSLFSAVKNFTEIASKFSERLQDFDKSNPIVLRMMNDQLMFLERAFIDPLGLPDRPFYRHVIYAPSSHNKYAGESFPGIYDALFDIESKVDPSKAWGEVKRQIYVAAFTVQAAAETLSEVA

One test has as its target human FOLH1 (Homo sapiens (Human), UniProt Q04609). Description: SPR analysis of binding kinetics to biotinylated FOLH1 (Biacore 8K). The note with it: ligand PSMA. On the technique in general: In SPR one partner is held on a chip, and binding of the other changes the refractive index at the surface.
For test [1], the target named is Recombinant Human PSMA/FOLH1 Protein (Homo sapiens (Human), UniProt Q04609). Put plainly: Inhibition assay (Amplex Red glutamic acid/glutamate oxidase, NAAG substrate). The test is classed as biochemical. The note with it: Target PSMA, average of N replicates.

In general, Kd refers to the equilibrium constant for the complex coming apart. A high value points to lower affinity. Usually IC50 stands for the concentration needed to halve the response being measured. The Ki is a dissociation constant, usually derived from enzyme kinetics or from competition with a known ligand.

SMILES strings stand for the structures. The structures given here were assigned with low confidence; some may be wrong.

In the case of `CC(=O)NCCOCCOCCOCCC(=O)N[C@@H](Cc1cccc(C(=O)O)c1)C(=O)NCCCC(=O)N[C@@H](Cc1ccc2ccccc2c1)C(=O)NCCCC[C@H](NC(=O)N[C@@H](CCC(=O)O)C(=O)O)C(=O)O`, the Kon at human FOLH1 (association rate) was 103000 1.ms. Moreover, the Koff at human FOLH1 (dissociation rate) was determined as 0.000282 s⁻¹. At human FOLH1 (kinetic 1:1 binding model), this molecule showed an equilibrium dissociation constant (Kd) of 2.75 nM. The IC50 in test [1] (PSMA 5 nM, NAAG 40 μM) amounted to 7.94 nM. Moreover, the inhibition constant (Ki) in test [1] (calculated based on Cheng-Prusoff equation) was 0.0568 nM.
